{"sequences": {"note": "The chains behind the UniProt entries cited, without tags or fusion partners.", "UniProt P11362, whole entry, looked up": "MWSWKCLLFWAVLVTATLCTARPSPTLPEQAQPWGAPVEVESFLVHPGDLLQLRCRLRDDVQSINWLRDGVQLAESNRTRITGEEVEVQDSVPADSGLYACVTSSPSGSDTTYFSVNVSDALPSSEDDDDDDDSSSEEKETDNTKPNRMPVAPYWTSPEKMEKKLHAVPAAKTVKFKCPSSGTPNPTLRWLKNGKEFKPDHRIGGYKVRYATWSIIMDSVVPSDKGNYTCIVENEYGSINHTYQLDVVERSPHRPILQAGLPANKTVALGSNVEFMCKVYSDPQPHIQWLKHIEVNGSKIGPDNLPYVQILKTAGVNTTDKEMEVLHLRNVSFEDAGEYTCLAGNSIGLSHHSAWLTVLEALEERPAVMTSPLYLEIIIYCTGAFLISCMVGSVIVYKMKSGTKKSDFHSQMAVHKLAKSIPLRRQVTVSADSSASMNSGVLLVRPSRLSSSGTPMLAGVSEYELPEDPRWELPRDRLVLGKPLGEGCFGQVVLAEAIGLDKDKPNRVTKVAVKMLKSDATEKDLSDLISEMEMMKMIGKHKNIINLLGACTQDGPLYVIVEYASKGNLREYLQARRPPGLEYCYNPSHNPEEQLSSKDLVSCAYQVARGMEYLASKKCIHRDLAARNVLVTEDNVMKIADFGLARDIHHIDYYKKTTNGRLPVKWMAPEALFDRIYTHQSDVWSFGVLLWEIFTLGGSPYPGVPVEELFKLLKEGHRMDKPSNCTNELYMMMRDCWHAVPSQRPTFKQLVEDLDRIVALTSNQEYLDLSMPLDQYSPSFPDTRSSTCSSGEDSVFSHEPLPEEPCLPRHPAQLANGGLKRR"}, "source": "the supplement of paper PMC12823440", "about": "“Inhibitors supercharge kinase turnover through native proteolytic circuits” (Nature, 2025)", "note": "The list shows a part of the results. The calls rarely recur for the same compound in another form.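 Kinases, fused to nanoluciferase, were expressed in K562 cells; luminescence was measured every 4 h from 2 to 18 h as percent of control (DMSO = 100%, positive control = 0%). A time point is decreased if signal falls significantly (2 sigma). Hits were called by the authors by a rule that is not shown; the count of time points alone does not decide it.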", "data": [{"target": "FGFR1 (UniProt P11362)", "experiment": "kinase-Nluc reporter destabilization hit call (1 = scored as downregulated) (binary); higher = compound decreases kinase abundance", "conditions": "K562; 2-18 h", "values": [{"smiles": "N#CC(C#N)=Cc1ccc([N+](=O)[O-])c(O)c1", "note": "(10 µM)", "kinase-Nluc reporter destabilization hit call": "inactive: 0"}, {"smiles": "C[C@H](CCC(=O)O)C[C@H](C)C[C@H](C)C(=O)/C=C(\\O)[C@H](C)C[C@H](C)C/C=C/[C@@H](C)[C@@H](O)[C@@H](C)[C@@H](O)C[C@@H]1CC[C@@](C)([C@H]2CC[C@@](C)([C@@H](C)O)O2)O1", "note": "[Ionomycin (calcium)] (2.5 µM)", "kinase-Nluc reporter destabilization hit call": "inactive: 0"}, {"smiles": "CC1C(=O)OC2C(O)C34C5OC(=O)C3(OC3OC(=O)C(O)C34C(C(C)(C)C)C5O)C12O", "note": "(stereo not given) [Ginkgolide C] (10 µM)", "kinase-Nluc reporter destabilization hit call": "inactive: 0"}, {"smiles": "Cn1cc(C2=C(c3cn(C4CCN(Cc5ccccn5)CC4)c4ccccc34)C(=O)NC2=O)c2ccccc21", "note": "[Enzastaurin] (10 µM)", "kinase-Nluc reporter destabilization hit call": "inactive: 0"}, {"smiles": "O=c1[nH]c2ccccc2n1C1CCN(Cc2ccc(-c3[nH]c4cc5ncnc5cc4nc3-c3ccccc3)cc2)CC1", "note": "[AKT inhibitor VIII] (2.5 µM)", "kinase-Nluc reporter destabilization hit call": "inactive: 0"}, {"smiles": "CCN1CCN(C(=O)Cc2ccc(Nc3ncc(F)c(Nc4ccc(C(=O)Nc5ccccc5Cl)cc4)n3)cc2)CC1", "note": "(2.5 µM)", "kinase-Nluc reporter destabilization hit call": "inactive: 0"}, {"smiles": "C=CC(=O)N[C@H]1C=C(C)c2c(-c3cnc4ccccc4c3)c3c(N)ncnc3n2C1", "note": "(10 µM)", "kinase-Nluc reporter destabilization hit call": "inactive: 0"}, {"smiles": "CC(C)(C)c1cc(C=C(C#N)C#N)cc(Br)c1O", "note": "(2.5 µM)", "kinase-Nluc reporter destabilization hit call": "inactive: 0"}, {"smiles": "CCCCNc1nc(N)c2[nH]c(=O)n(Cc3ccc(C)nc3)c2n1", "note": "(10 µM)", "kinase-Nluc reporter destabilization hit call": "inactive: 0"}, {"smiles": "C=CC(=O)Nc1ccc2[nH]c(=O)n(C3CCN(Cc4ccc(-c5nc6cc[nH]c(=O)c6cc5-c5ccccc5)cc4)CC3)c2c1", "note": "[Borussertib] (10 µM)", "kinase-Nluc reporter destabilization hit call": "inactive: 0"}]}]}
